The assay addresses adenylate kinase 4 (AK4) (human (endogenous in 6-10B)) (UniProt P27144). Nature of the assay: co-IP; 6-10B lysate in IP lysis buffer, anti-AK4 antibody (anti-IgG as negative control) at 4 °C overnight, Protein A/G Sepharose beads, western blotting.

The chains behind the UniProt entries cited, without tags or fusion partners.
UniProt P27144: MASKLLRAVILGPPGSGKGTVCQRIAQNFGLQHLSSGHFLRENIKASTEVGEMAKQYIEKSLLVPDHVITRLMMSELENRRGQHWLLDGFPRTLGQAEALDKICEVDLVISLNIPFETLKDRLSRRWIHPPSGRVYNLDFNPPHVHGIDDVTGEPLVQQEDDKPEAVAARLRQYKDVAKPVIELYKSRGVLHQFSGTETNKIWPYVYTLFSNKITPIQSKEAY

Results are given in words; binding and its absence hold for the method and conditions named. In cells and extracts the contact can be indirect. Some results given as binding are weak or reduced against the parent protein; the word gives no strength.

B1: nicotinamide nucleotide transhydrogenase (NNT) (protein, UniProt Q13423 44-1086)
chain: CKAPVKPGIPYKQLTVGVPKEIFQNEKRVALSPAGVQNLVKQGFNVVVESGAGEASKFSDDHYRVAGAQIQGAKEVLASDLVVKVRAPMVNPTLGVHEADLLKTSGTLISFIYPAQNPELLNKLSQRKTTVLAMDQVPRVTIAQGYDALSSMANIAGYKAVVLAANHFGRFFTGQITAAGKVPPAKILIVGGGVAGLASAGAAKSMGAIVRGFDTRAAALEQFKSLGAEPLEVDLKESGEGQGGYAKEMSKEFIEAEMKLFAQQCKEVDILISTALIPGKKAPVLFNKEMIESMKEGSVVVDLAAEAGGNFETTKPGELYIHKGITHIGYTDLPSRMATQASTLYSNNITKLLKAISPDKDNFYFDVKDDFDFGTMGHVIRGTVVMKDGKVIFPAPTPKNIPQGAPVKQKTVAELEAEKAATITPFRKTMSTASAYTAGLTGILGLGIAAPNLAFSQMVTTFGLAGIVGYHTVWGVTPALHSPLMSVTNAISGLTAVGGLALMGGHLYPSTTSQGLAALAAFISSVNIAGGFLVTQRMLDMFKRPTDPPEYNYLYLLPAGTFVGGYLAALYSGYNIEQIMYLGSGLCCVGALAGLSTQGTARLGNALGMIGVAGGLAATLGVLKPGPELLAQMSGAMALGGTIGLTIAKRIQISDLPQLVAAFHSLVGLAAVLTCIAEYIIEYPHFATDAAANLTKIVAYLGTYIGGVTFSGSLIAYGKLQGLLKSAPLLLPGRHLLNAGLLAASVGGIIPFMVDPSFTTGITCLGSVSALSAVMGVTLTAAIGGADMPVVITVLNSYSGWALCAEGFLLNNNLLTIVGALIGSSGAILSYIMCVAMNRSLANVILGGYGTTSTAGGKPMEISGTHTEINLDNAIDMIREANSIIITPGYGLCAAKAQYPIADLVKMLTEQGKKVRFGIHPVAGRMPGQLNVLLAEAGVPYDIVLEMDEINHDFPDTDLVLVIGANDTVNSAAQEDPNSIIAGMPVLEVWKSKQVIVMKRSLGVGYAAVDNPIFYKPNTAMLLGDAKKTCDALQAKVRESYQK
On to B1, for which the binding entry is reported as “binds”.

The record behind these values is paper PMC12217281.
